Entries after “also recorded” stand apart in the source; their conditions may differ. For some of these results: The expression values are mRNA levels of the gene; the protein chain is shown to identify it.
B1: CHLFLQPQVGTPPPHTASARAPSGPPHPHESCPAGRRPARAAQTCARRQHGLPGCEEAGTARVPSLHLHLHQAALGAGRGRGWGEACAQVPPSRG (peptide, listed as Homo sapiens)
chain: CHLFLQPQVGTPPPHTASARAPSGPPHPHESCPAGRRPARAAQTCARRQHGLPGCEEAGTARVPSLHLHLHQAALGAGRGRGWGEACAQVPPSRG
notes: RECQL4 alternative splicing
B2: VPFRELKNQRTAQGAPGIHHAASPVAANLCDPARHAQHTRIPCGAGQVRAGRGPEAGGGVLQPQRPAPEKPGCPCRRGQPRLHTVKMWRA (peptide, listed as Homo sapiens)
chain: VPFRELKNQRTAQGAPGIHHAASPVAANLCDPARHAQHTRIPCGAGQVRAGRGPEAGGGVLQPQRPAPEKPGCPCRRGQPRLHTVKMWRA
notes: CPNE7 alternative splicing
B3: LWFQSSELSPTGAPWPSRRPTWRGTTVSPRTATSSARTCCGTKWPSSQEAALGLGSGLLRFSCGTAAIR (peptide, listed as Homo sapiens)
chain: LWFQSSELSPTGAPWPSRRPTWRGTTVSPRTATSSARTCCGTKWPSSQEAALGLGSGLLRFSCGTAAIR
notes: NME4->DECR2 gene fusion
B4: YAYKDFLWCFPFSLVFLQEIQICCHVSCLCCICCSTRICLGCLLELFLSRALRALHVLWNGFQLHCQ (peptide, listed as Homo sapiens)
chain: YAYKDFLWCFPFSLVFLQEIQICCHVSCLCCICCSTRICLGCLLELFLSRALRALHVLWNGFQLHCQ
B5: VPFRELKNVSVLEGLRQGRLGGPCSCHCPRPSQARLTPVDVAGPFLCLGDPGLFPPVKSSI (peptide, listed as Homo sapiens)
chain: VPFRELKNVSVLEGLRQGRLGGPCSCHCPRPSQARLTPVDVAGPFLCLGDPGLFPPVKSSI
notes: CPNE7 alternative splicing
B6: WGMELAASRRFSWDHHSAGGPPRVPSVRSGAAQVQPKDPLPLRTLAGCLARTAHLRPGAESLPQPQLHCT (peptide, listed as Homo sapiens)
chain: WGMELAASRRFSWDHHSAGGPPRVPSVRSGAAQVQPKDPLPLRTLAGCLARTAHLRPGAESLPQPQLHCT
notes: INCA1->CAMTA2 gene fusion
B7: HYKLIQQPISLFSITDRLHKTFSQLPSVHLCSITFQWGHPPIFCSTNDICVTANFCISVTFLKPCFLLHEASASQ (peptide, listed as Homo sapiens)
chain: HYKLIQQPISLFSITDRLHKTFSQLPSVHLCSITFQWGHPPIFCSTNDICVTANFCISVTFLKPCFLLHEASASQ

Tests used:
Set-up in all cases: species or system human
[1] = tested on: FFPE tissue samples from prostate cancer; assay: Expression profiling of prostate neoantigens in FFPE prostate cancer samples (Fluidigm Biomark HD); conditions: for qPCR Relative Average Ct: FFPE prostate cancer tissue samples; for qPCR % Positive FFPE: about 90 FFPE prostate cancer tissue samples
[2] = tested on: Frozen prostate cancer tissues; assay: Prevalence of neoantigens in frozen prostate cancer tissues (n = 11); conditions: Table 22
[3] = tested on: panel of normal tissues, PBMCs obtained from healthy subjects, cell lines; assay: Expression profiling of prostate neoantigens in normal tissues, PBMCs and cell lines (Fluidigm Biomark HD)

Row | Molecule | qPCR Relative Average Ct [1] | qPCR % Positive FFPE [1] | Frozen prostate cancer tissues* (n = 11) [2] | qPCR Normal Tissue Expression [3]
1 | CEERGAAGSLISCE (listed as Homo sapiens) [FUS6, TMPRSS2->ERG gene fusion] | 11 | 19% |  | 
2 | CGASACDVSLIAMDSA (listed as Homo sapiens) [FUS1, SLC45A3->ELK4 gene fusion] | 9 | 72% |  | 
3 | DGHSYTSKVNCLLLQDGFHGCVSITGAAGRRNLSIFLFLMLCKLEFHAC (listed as Homo sapiens) [AS55, SPOCK1 alternative splicing] | 8.2 | 83.3% | 18.2 | 
4 | DYWAQKEKGSSSFLRPSC (listed as Homo sapiens) [AS7, ACSM1 alternative splicing] | 11.0 | 57.8% | 27.3 | 
5 | DYWAQKEKISIPRTHLC (listed as Homo sapiens) [AS6, ACSM1 alternative splicing] | 10.0 | 33.3% | 27.3 | 
6 | EAFQRAAGEGGPGRGGARRGARVLQSPFCRAGAGEWLGHQSLR (listed as Homo sapiens) [AS41, RHPN1 alternative splicing] | 11.6 | 45.6% | 0.0 | 
7 | FKKFDGPCGERGGGRTARALWARGDSVLTPALDPQTPVRAPSLTRAAAAV (listed as Homo sapiens) [AS47, AGRN alternative splicing] | 12.3 | 16.7% | 0.0 | 
8 | FUSS (NSKMALNSEALSVVSE; listed as Homo sapiens) | 7 | 14% |  | 
9 | GMECTLGQVGAPSPRREEDGWRGGHSRFKADVPAPQGPCWGGQPGSAPSSAPPEQSLLD (listed as Homo sapiens) [AS51, CPNE7 alternative splicing] | 10.5 | 47.8% | 9.1 | 
10 | GNTTLQQLGEASQAPSGSLIPLRLPLLWEVRG (listed as Homo sapiens) [AS16, LRRC45 alternative splicing] | 10.8 | 47.8% | 45.5 | 
11 | GVPGDSTRRAVRRMNTF (listed as Homo sapiens) [Neoantigen P16] | 9 | 76% |  | Prostate
12 | HVVGYGHLDTSGSSSSSSWP (listed as Homo sapiens) [FUS15, D2HGDH->GAL3ST2 gene fusion] | 13 | 8% |  | 
13 | KIQNKNCPD (listed as Homo sapiens) [AS23, ZNF614 alternative splicing] | 13.0 | 22.0% | 45.5 | Mammary
14 | KMHFSLKEHPPPPCPP (listed as Homo sapiens) [FUS19, GTF2F1->PSPN gene fusion] | 13 | 4% |  | 
15 | KRSFAVTERII (listed as Homo sapiens) [AS13, GRIN3A alternative splicing] | 11.1 | 21.1% | 27.3 | 
16 | LVLGVLSGHSGSRL (listed as Homo sapiens) [AS8, CACNA1D alternative splicing] | 12.5 | 13.3% | 0.0 | 
17 | NSKMALNSLNSIDDAQLTRIAPPRSHCCFWEVNAP (listed as Homo sapiens) [Neoantigen P35] | 13 | 5% |  | None
18 | QWQHYHRSGEAAGTPLWRPTRN (listed as Homo sapiens) [AS19, NWD1 alternative splicing] | 6.3 | 95.6% |  | 

Row | Molecule | qPCR Relative Average Ct [1] | qPCR % Positive FFPE [1] | Frozen prostate cancer tissues* (n = 11) [2] | qPCR Normal Tissue Expression [3]
19 | RTALTHNQDFSIYRLCCKRGSLCHASQARSPAFPKPVRPLPAPITRITPQLGGQSDSSQPLLTTGRPQGWQDQALRHTQQASPASCATITIPIHSAALGDHSGDPGPAWDTCPPLPLTTLIPRAPPPYGDSTARSWPSRCGPLG [MS3] |  |  | 9.1 | 
20 | SLYHREKQLIAMDSAI (listed as Homo sapiens) [Neoantigen P22] | 9 | 70% |  | Prostate
21 | TEISCCTLSSEENEYLPRPEWQLQ (listed as Homo sapiens) [FUS3, MSMB->NCOA4 gene fusion] | 11 | 43% |  | 
22 | TEYNQKLQVNQFSESK (listed as Homo sapiens) [FUS2, ARHGEF38->ARHGEF38-IT1 gene fusion] | 11 | 55% |  | Mammary
23 | TGGKSTCSAPGPQSLPSTPFSTYPQWVILITEL (listed as Homo sapiens) [AS57, KLK3 alternative splicing] | 7.9 | 83.3% | 36.4 | 
24 | TMPAILKLQKNCLLSL (listed as Homo sapiens) [MS8] |  |  | 18.2 | None
25 | VAMMVPDRQVHYDFGL (listed as Homo sapiens) [AS3, DNAH8 alternative splicing] | 10.8 | 26.7% | 27.3 | 
26 | VLRFLDLKVRYLHS (listed as Homo sapiens) [AS15, LRRC45 alternative splicing] | 11.4 | 68.9% | 36.4 | Ovary,; also recorded: Mammary
27 | WKFEMSYTVGGPPPHVHARPRHWKTDR (listed as Homo sapiens) [AS18, NWD1 alternative splicing] | 6.3 | 95.6% |  | 
28 | YEAGMTLGEKFRVGNCKHLKMTRP (listed as Homo sapiens) [Neoantigen P82] | 11 | 37.0% |  | 
29 | YEAGMTLGGKILFFLFLLLPLSPFSLIF (listed as Homo sapiens) [Neoantigen P87] | 8.3 | 85.6% | 0.0 | Ovary, Prostate
30 | B1 |  | 0.0% | 0.0 | 
31 | B2 | 12.1 | 25.6% | 9.1 | 
32 | B3 |  | 0% |  | 
33 | B4 |  |  | 9.1 | None
34 | B5 | 11.2 | 52.2% | 0.0 | Mammary
35 | B6 | 14 | 11% |  | 
36 | B7 |  |  | 18.2 | None

Source: US12295997B2, “Prostate neoantigens and their uses” (Janssen Biotech, Inc., priority 2020, dated 2025)
